± gives the standard deviation of the averaged measurements. This is a selection; strong and weak results do not stand in their true shares. Small differences around the control level are noise.

Sequences of proteins named here, by UniProt entry; tags and fusion partners are left off. A change or cut given only in a name is not applied to a line headed by its entry.
UniProt Q8IYA6: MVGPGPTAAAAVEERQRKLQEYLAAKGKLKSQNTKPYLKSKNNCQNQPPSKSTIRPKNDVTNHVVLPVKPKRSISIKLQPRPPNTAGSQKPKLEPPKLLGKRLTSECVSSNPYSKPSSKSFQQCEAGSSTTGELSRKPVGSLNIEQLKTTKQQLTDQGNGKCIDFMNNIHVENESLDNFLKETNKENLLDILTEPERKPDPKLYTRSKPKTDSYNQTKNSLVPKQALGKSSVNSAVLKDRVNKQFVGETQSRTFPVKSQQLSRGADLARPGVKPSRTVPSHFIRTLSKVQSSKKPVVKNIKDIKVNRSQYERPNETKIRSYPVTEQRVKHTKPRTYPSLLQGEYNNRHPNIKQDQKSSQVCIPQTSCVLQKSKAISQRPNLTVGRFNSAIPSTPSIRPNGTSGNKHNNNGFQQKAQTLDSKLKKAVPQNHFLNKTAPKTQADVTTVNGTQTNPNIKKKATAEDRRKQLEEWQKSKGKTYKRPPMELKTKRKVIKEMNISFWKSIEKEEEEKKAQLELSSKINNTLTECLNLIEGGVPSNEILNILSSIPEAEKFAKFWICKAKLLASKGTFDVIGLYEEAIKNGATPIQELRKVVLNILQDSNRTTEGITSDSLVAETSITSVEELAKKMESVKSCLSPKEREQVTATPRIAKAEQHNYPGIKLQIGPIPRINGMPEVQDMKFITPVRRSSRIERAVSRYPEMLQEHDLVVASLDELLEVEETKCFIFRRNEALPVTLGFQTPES
UniProt Q8N5K1: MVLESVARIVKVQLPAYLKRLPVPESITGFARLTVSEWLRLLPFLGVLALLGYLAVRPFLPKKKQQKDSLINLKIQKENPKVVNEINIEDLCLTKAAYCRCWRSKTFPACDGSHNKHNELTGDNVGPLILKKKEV
UniProt Q8N4C8: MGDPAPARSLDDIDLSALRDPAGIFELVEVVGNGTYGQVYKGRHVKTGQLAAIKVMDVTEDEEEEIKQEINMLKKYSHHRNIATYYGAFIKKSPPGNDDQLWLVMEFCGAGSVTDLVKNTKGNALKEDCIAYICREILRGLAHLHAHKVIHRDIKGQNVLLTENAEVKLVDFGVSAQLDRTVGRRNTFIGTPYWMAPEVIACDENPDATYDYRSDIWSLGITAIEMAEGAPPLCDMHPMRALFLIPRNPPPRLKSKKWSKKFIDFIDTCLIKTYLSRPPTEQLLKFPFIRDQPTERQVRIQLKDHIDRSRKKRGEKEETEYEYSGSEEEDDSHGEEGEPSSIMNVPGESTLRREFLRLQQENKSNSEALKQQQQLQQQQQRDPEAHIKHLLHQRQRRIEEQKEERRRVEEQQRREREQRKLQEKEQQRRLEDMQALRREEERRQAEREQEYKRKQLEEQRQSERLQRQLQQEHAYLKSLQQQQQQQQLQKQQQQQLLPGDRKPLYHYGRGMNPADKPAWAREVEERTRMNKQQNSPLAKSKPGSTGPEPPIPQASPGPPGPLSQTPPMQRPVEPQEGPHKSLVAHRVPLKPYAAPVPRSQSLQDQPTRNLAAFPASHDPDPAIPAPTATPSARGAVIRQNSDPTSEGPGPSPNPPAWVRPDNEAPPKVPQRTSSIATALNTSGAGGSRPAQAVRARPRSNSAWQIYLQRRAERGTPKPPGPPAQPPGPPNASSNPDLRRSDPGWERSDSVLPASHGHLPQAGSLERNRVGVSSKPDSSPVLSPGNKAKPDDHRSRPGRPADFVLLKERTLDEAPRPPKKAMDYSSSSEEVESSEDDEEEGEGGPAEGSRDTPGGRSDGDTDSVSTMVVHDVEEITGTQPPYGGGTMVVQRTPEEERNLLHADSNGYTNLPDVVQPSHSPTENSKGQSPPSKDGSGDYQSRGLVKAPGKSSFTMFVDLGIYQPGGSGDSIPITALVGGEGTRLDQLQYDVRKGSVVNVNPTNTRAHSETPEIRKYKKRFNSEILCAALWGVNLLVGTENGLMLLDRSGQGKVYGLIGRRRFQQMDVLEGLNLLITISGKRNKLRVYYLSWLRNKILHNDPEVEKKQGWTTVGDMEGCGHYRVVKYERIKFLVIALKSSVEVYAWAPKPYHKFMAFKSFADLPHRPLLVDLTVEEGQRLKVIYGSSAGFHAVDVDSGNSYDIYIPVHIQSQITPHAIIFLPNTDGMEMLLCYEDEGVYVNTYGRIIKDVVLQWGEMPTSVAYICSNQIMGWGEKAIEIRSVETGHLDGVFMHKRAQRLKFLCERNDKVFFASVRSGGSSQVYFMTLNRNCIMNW
UniProt Q8N4S0: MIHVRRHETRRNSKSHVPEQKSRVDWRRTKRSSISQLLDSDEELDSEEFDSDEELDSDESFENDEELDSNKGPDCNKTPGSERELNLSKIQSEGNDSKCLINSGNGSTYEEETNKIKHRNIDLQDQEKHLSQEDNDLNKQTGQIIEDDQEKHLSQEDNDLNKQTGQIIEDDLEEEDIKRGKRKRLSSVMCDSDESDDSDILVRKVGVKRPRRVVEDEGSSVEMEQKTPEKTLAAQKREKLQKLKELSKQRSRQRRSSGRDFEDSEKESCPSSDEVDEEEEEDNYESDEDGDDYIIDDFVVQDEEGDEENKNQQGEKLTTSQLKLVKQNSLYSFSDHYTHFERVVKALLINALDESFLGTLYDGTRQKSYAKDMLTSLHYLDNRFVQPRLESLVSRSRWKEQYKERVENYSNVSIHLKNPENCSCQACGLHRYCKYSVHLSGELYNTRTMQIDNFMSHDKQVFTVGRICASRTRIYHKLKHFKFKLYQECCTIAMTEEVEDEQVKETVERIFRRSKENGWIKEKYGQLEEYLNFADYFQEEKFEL
UniProt Q8N6H7: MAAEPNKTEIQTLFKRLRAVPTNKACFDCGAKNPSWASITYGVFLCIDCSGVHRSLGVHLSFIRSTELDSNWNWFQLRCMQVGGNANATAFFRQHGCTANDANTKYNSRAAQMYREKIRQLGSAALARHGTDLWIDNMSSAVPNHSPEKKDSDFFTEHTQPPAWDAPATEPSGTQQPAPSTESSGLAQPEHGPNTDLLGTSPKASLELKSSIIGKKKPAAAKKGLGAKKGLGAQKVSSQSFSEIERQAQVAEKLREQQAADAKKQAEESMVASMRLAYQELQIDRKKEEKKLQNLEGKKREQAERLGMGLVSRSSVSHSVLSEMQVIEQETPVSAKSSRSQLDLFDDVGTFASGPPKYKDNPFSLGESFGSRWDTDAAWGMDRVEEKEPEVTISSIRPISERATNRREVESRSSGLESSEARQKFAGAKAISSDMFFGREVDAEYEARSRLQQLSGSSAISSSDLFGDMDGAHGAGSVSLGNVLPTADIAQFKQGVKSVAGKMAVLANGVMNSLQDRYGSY
UniProt Q8TB37: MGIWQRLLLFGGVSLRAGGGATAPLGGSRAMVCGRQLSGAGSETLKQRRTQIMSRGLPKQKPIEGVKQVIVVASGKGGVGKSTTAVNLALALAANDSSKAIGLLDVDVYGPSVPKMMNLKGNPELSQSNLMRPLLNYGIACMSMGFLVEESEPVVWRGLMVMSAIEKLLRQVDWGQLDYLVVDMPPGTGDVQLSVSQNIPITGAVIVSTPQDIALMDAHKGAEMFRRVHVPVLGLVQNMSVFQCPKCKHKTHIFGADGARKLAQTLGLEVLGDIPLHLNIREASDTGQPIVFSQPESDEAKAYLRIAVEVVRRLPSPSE
UniProt Q8N1K5: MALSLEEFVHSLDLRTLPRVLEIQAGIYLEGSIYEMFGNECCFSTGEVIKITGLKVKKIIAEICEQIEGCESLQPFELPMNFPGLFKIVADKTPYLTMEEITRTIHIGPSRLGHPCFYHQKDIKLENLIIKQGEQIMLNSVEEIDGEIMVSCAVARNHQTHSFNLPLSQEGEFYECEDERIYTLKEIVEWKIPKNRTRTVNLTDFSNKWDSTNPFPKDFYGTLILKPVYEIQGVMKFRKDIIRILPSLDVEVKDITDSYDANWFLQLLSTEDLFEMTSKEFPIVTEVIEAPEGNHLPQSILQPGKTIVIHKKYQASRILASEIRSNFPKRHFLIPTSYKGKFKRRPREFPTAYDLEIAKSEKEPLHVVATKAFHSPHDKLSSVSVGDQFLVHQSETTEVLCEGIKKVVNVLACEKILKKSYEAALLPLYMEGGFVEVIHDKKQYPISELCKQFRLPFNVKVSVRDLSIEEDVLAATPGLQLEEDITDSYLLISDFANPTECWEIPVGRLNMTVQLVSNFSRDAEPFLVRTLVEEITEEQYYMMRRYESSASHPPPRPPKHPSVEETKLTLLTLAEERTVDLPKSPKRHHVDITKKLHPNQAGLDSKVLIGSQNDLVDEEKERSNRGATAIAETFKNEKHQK
UniProt Q8N653: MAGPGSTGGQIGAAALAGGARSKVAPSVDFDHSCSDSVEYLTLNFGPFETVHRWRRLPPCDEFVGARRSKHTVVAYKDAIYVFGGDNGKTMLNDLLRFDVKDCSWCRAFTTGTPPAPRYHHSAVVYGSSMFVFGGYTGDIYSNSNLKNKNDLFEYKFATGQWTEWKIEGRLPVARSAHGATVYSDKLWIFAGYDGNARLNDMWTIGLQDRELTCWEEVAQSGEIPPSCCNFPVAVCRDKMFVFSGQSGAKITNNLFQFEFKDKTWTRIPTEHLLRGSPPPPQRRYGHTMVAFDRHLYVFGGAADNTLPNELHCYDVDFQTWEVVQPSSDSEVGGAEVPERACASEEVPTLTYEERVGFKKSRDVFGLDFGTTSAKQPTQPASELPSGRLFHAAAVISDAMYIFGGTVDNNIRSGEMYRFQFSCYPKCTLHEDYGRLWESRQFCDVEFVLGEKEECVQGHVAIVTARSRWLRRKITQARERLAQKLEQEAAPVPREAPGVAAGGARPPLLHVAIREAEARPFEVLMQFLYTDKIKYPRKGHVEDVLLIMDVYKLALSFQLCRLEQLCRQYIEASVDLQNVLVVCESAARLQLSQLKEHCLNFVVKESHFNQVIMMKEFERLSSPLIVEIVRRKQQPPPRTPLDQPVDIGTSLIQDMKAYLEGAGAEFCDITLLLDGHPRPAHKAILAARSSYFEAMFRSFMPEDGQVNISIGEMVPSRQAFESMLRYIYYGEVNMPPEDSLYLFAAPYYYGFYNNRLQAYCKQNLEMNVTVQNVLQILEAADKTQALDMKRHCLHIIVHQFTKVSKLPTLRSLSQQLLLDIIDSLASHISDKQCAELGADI
UniProt Q8TB03: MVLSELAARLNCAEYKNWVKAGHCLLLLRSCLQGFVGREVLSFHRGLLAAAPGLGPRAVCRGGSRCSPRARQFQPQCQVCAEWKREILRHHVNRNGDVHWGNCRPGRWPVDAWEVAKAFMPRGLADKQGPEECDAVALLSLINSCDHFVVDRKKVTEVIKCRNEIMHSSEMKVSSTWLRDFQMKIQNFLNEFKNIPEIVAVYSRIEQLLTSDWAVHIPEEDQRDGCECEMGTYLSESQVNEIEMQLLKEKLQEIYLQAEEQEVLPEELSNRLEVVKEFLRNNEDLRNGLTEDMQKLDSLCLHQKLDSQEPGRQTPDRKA
UniProt Q8IYW5, whole entry: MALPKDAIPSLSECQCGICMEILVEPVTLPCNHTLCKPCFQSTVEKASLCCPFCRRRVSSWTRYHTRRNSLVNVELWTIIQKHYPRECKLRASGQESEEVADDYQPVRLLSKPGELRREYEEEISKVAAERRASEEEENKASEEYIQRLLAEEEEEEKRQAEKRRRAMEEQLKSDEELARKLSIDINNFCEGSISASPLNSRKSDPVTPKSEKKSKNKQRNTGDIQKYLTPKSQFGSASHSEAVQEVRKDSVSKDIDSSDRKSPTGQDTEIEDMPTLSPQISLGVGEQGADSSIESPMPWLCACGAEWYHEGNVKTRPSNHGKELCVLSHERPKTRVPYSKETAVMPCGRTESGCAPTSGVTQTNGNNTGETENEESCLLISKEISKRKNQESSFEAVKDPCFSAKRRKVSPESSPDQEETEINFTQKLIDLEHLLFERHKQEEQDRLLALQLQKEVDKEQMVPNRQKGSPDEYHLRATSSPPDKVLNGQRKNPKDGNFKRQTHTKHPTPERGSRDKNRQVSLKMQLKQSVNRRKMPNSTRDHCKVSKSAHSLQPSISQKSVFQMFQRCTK
UniProt Q8IZ07: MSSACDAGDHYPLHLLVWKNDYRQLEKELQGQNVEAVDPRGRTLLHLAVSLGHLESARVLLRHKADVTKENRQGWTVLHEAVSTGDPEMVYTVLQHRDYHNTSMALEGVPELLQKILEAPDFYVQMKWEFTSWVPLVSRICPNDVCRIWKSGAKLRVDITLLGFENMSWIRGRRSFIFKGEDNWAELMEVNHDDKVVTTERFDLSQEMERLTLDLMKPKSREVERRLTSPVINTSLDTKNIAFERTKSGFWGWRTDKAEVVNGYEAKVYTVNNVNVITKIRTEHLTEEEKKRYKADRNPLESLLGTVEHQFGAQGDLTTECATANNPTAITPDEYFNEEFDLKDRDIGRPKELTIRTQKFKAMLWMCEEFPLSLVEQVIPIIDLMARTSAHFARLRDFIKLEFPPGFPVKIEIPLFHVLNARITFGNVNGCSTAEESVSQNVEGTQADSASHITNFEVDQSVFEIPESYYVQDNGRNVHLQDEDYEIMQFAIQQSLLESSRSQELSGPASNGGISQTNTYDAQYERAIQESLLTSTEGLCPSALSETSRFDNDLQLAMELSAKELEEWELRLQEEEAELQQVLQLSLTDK

Among the data in the supplement of paper PMC6411743 are NP40-soluble protein abundance values, retold here.

Compound in one assay: Nc1ncnc2c1ncn2[C@@H]1O[C@H](COP(=O)(O)OP(=O)(O)OP(=O)(O)O)[C@@H](O)[C@H]1O [adenosine triphosphate]
In words: NP40-soluble protein abundance relative to vehicle (solubility fold change) (ratio); higher = more soluble protein in presence of ATP. The settings on record: concentration: 0.1mM. In short, it runs like this:
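Values are fold changes against the detergent-processed vehicle, based on vsn-normalised intensities. Jurkat crude lysate was treated at eight concentrations from 0.1 to 10 mM (10 min at room temperature, then 3 min at 37 °C), solubilised with 0.8% NP40 and benzonase, ultracentrifuged and analysed by TMT-labelled LC-MS/MS over three independent experiments.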
With CKAP2L (UniProt Q8IYA6), the NP40-soluble protein abundance amounted to 0.931 ± 0.066. Consider CISD2 (UniProt Q8N5K1), for which the NP40-soluble protein abundance turned out to be 1.04 ± 0.047. As to UniProt Q8IXQ6-2|Q8IXQ6-3, the NP40-soluble protein abundance is 1.07 ± 0.039. For the target LRRC57 (UniProt Q8N9N7), the NP40-soluble protein abundance came to 1.02 ± 0.033. Consider UniProt Q8NCR0 and related entries, for which the NP40-soluble protein abundance was 1.07 ± 0.11. Regarding UniProt Q8N4C8 and related entries, the NP40-soluble protein abundance was found to be 0.986 ± 0.076.

In the case of CCDC82 (UniProt Q8N4S0), the NP40-soluble protein abundance is 0.894 ± 0.024. In the case of ARFGAP2 (UniProt Q8N6H7), the NP40-soluble protein abundance is 1 ± 0.04. The same measure, in the same setting: the same measure for NUBPL (UniProt Q8TB37): 1.024 ± 0.0096; for UniProt Q8IWF6: 0.989 ± 0.054.

Staying with this assay, now noted: concentration: 0.5mM.
Turning to FAM76A (UniProt Q8TAV0), the NP40-soluble protein abundance worked out at 0.991 ± 0.042. As to UniProt Q8IW41 and related entries, the NP40-soluble protein abundance amounted to 1.03 ± 0.083. With GDAP1 (UniProt Q8TB36), the NP40-soluble protein abundance worked out at 0.984 ± 0.076. For the target UniProt Q8N1K5 and related entries, the NP40-soluble protein abundance was 1.05 ± 0.098. Take UniProt Q8N9R8 and related entries: the NP40-soluble protein abundance turned out to be 1.03 ± 0.015. With UniProt Q8IXW5 and related entries, the NP40-soluble protein abundance was 1.01 ± 0.044. For the target UniProt Q8N5G2, the NP40-soluble protein abundance worked out at 1 ± 0.074. Turning to ARL6IP6 (UniProt Q8N6S5), the NP40-soluble protein abundance stood at 1.02 ± 0.042. As for C9orf40 (UniProt Q8IXQ3), the NP40-soluble protein abundance was found to be 0.961 ± 0.089. Same read-out and setting: the same measure for LZTR1 (UniProt Q8N653): 0.931 ± 0.022. Same read-out and setting: the same measure for CXorf38 (UniProt Q8TB03): 0.955 ± 0.022; for ARFGAP1 (UniProt Q8N6T3): 0.9992 ± 0.0059; for UniProt Q8NDD1 and related entries: 0.983 ± 0.069.

Turning to RNF168 (UniProt Q8IYW5), the NP40-soluble protein abundance worked out at 0.94 ± 0.044. Consider UniProt Q8IZH2 and related entries, for which the NP40-soluble protein abundance turned out to be 1.04 ± 0.03.

As for PAF1 (UniProt Q8N7H5), the NP40-soluble protein abundance is 1.05 ± 0.047.

As to NUP43 (UniProt Q8NFH3), the NP40-soluble protein abundance is 1.01 ± 0.077. On the same count and under the same terms, the same measure for UniProt Q8N9N2-2|Q8N9N2: 1.04 ± 0.065; for UniProt Q8N490 and related entries: 1.04 ± 0.12; for CMIP (UniProt Q8IY22): 1.042 ± 0.0018.

With GADD45GIP1 (UniProt Q8TAE8), the NP40-soluble protein abundance is 0.829 ± 0.17.

On to ANKRD13A (UniProt Q8IZ07), for which the NP40-soluble protein abundance is 1.02 ± 0.043. Still for that read-out and setting: the same measure for UniProt Q8NHP8 and related entries: 0.894 ± 0.092; for TTC39C (UniProt Q8N584): 1.05 ± 0.029. The same measure, in the same setting: the same measure for UniProt Q8NHM5 and related entries: 1.05 ± 0.037. For the target DTWD1 (UniProt Q8N5C7), the NP40-soluble protein abundance worked out at 0.999 ± 0.083.

Consider UniProt Q8ND56 and related entries, for which the NP40-soluble protein abundance is 0.994 ± 0.041. With CKAP2L (UniProt Q8IYA6), the NP40-soluble protein abundance is 0.986 ± 0.055. Consider CISD2 (UniProt Q8N5K1), for which the NP40-soluble protein abundance came to 0.988 ± 0.045. In the case of UniProt Q8IXQ6-2|Q8IXQ6-3, the NP40-soluble protein abundance was 1.08 ± 0.017. As for LRRC57 (UniProt Q8N9N7), the NP40-soluble protein abundance amounted to 1.03 ± 0.039. Same read-out and setting: the same measure for UniProt Q8NCR0 and related entries: 1.13 ± 0.071; for UniProt Q8N4C8 and related entries: 0.989 ± 0.046; for CCDC82 (UniProt Q8N4S0): 0.733 ± 0.037. As for ARFGAP2 (UniProt Q8N6H7), the NP40-soluble protein abundance was 0.975 ± 0.04.

In the case of NUBPL (UniProt Q8TB37), the NP40-soluble protein abundance is 1.05 ± 0.024. For UniProt Q8IWF6, the NP40-soluble protein abundance came out at 1.03 ± 0.068.
